Data from PMC12501092.
Results are given in words; binding and its absence hold for the method and conditions named. In cells and extracts the contact can be indirect. Some entries that bind do so weakly or less than the wild type. For some assays here: Where a sequence is shown, tags or fusion partners need not be part of it. Values belong to the molecule of their own block, whether it stands above or below them.

By UniProt entry, the sequences of proteins in these tests, tags left out. Where a name states a change or a piece, a line headed by the entry shows the natural chain unless it says otherwise.
UniProt Q14258: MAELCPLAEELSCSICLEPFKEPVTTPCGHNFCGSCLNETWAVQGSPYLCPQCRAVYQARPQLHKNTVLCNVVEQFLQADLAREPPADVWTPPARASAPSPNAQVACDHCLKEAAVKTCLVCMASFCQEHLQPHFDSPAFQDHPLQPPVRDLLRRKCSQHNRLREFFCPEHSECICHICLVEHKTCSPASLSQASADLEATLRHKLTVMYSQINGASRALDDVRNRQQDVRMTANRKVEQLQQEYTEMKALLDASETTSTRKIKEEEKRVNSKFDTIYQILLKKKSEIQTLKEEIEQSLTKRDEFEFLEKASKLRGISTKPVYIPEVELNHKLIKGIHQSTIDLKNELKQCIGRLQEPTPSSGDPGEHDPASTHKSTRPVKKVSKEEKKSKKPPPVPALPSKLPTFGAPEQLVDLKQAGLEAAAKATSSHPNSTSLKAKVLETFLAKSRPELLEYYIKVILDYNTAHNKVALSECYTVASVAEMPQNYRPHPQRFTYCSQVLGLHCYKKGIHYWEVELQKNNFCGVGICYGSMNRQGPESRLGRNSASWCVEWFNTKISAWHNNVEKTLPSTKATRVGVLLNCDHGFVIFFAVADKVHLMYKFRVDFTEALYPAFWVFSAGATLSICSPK
UniProt Q92793: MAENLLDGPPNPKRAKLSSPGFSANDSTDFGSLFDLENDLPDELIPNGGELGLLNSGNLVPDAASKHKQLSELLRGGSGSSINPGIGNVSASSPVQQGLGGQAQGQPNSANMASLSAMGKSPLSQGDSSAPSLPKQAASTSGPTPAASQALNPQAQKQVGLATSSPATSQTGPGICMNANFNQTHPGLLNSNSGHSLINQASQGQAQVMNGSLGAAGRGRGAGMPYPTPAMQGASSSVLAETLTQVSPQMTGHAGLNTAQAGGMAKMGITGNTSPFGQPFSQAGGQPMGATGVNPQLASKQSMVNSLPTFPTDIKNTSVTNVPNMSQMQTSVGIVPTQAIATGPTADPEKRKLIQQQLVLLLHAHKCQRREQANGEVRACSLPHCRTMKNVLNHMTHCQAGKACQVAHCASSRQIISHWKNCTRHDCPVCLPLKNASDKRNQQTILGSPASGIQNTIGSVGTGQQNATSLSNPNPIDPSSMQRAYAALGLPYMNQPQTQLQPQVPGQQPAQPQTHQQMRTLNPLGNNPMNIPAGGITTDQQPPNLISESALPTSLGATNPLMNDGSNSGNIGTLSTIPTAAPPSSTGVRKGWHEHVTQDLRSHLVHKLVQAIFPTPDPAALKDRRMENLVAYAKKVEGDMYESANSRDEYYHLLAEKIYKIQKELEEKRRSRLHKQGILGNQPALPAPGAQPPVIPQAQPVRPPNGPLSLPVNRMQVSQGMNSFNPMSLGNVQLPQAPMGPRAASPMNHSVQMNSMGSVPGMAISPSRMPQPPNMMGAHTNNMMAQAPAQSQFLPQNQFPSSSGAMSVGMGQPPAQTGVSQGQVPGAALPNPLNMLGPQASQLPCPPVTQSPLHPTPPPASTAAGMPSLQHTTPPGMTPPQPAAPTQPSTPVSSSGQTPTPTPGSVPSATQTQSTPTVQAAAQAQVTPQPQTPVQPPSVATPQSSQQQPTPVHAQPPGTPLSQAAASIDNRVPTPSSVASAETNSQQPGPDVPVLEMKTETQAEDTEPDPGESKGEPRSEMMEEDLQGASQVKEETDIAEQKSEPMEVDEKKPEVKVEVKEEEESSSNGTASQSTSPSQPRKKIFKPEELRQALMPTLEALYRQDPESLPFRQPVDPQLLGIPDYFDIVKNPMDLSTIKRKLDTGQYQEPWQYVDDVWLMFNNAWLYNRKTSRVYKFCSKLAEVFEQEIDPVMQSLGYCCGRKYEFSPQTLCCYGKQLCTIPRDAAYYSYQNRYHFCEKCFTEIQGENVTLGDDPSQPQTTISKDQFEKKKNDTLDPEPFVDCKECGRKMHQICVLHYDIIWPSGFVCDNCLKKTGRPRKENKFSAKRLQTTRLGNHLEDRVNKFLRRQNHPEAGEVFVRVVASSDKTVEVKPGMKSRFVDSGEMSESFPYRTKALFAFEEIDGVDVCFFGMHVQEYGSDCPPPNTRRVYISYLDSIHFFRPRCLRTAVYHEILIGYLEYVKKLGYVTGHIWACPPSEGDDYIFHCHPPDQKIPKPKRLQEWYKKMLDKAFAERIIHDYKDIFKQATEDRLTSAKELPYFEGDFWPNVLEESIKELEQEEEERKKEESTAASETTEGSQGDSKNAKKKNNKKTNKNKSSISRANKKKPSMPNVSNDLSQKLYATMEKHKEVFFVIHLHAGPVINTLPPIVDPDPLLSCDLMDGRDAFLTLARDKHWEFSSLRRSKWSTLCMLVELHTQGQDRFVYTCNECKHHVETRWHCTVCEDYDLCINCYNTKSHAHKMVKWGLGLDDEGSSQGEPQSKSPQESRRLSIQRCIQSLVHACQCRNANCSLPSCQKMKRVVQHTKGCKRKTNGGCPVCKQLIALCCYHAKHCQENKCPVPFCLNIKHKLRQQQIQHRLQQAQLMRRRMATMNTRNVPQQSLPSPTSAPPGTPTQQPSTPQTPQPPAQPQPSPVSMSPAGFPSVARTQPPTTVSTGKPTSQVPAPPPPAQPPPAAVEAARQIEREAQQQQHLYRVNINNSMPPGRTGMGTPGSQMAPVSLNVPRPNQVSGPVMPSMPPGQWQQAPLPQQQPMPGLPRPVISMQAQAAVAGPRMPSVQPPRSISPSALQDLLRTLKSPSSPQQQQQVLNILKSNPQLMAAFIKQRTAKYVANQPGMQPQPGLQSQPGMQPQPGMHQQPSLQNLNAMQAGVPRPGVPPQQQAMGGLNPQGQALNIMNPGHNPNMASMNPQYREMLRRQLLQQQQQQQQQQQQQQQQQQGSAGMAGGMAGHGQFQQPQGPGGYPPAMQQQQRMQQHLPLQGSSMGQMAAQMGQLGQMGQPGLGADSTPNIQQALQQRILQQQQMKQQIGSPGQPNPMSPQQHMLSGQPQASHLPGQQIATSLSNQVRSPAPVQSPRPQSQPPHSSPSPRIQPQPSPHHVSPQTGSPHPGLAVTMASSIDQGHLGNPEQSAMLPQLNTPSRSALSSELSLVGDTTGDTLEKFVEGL
UniProt Q93009: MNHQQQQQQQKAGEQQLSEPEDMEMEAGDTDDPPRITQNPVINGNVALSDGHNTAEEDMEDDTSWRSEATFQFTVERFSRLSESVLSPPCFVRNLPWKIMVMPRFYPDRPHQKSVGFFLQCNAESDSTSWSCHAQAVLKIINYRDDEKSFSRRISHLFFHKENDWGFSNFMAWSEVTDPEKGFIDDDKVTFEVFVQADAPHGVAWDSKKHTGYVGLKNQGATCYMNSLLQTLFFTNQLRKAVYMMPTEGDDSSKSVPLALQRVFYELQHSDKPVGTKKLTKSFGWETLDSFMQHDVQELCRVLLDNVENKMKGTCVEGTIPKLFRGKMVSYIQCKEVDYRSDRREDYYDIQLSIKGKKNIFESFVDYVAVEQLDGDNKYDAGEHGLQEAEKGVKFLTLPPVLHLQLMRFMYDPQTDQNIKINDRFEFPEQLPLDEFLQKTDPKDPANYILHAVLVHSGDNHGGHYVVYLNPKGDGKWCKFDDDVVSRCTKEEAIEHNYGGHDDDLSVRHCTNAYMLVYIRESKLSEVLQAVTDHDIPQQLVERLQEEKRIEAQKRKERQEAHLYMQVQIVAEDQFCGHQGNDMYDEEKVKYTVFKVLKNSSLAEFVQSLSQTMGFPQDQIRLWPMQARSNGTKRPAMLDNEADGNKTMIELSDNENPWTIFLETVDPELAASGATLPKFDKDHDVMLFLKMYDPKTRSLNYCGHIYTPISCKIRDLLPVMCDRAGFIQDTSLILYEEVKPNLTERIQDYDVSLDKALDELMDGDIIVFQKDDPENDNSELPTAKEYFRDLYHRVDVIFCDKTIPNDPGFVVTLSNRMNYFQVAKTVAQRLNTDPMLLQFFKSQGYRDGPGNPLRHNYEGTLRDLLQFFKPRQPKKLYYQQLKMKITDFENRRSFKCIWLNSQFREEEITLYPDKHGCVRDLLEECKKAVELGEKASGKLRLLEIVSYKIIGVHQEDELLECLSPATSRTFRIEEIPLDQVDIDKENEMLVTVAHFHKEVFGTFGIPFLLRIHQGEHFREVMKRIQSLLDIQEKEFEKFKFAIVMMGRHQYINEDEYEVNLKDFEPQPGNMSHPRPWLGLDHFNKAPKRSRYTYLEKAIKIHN
UniProt Q9NRC8: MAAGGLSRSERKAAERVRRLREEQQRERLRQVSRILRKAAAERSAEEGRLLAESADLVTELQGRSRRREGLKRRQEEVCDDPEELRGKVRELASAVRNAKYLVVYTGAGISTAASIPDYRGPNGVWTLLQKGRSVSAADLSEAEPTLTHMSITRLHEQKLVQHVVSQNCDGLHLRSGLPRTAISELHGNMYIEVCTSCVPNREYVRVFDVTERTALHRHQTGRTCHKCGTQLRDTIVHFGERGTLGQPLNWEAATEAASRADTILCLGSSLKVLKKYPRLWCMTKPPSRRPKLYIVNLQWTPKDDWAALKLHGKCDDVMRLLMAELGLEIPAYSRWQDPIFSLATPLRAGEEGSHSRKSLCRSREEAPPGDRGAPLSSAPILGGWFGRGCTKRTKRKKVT

Legend:
[1] = molecular target: TRIM25, endogenous (human (endogenous in A549 and H1299)) (UniProt Q14258); assay: co-IP; endogenous proteins in A549 and H1299 (NSCLC) cell lysates; antibody-coupled protein A/G magnetic beads; Western blot
[2] = molecular target: TRIM25 (tripartite motif containing 25), transfected, as co-expressed with CBP or SIRT7 (UniProt Q14258); assay: co-IP; 293 T cells co-transfected with tagged plasmids; lysed in ice-cold IP lysate; anti-Flag or anti-HA magnetic beads; Western blot
TRIM25-FLAG [3] = molecular target: TRIM25-FLAG (UniProt Q14258); assay: as above
TRIM25-K392Q [4] = molecular target: TRIM25-K392Q (UniProt Q14258); assay: co-IP; A549 cells co-transfected with tagged plasmids; anti-Flag or anti-HA magnetic beads; Western blot
TRIM25-FLAG [5] = molecular target: TRIM25-FLAG (UniProt Q14258); assay: as above
TRIM25-K392R [6] = molecular target: TRIM25-K392R (UniProt Q14258); assay: as above
TRIM25-FLAG [7] = molecular target: TRIM25-FLAG (UniProt Q14258); assay: co-IP; 293 T cells co-transfected with tagged plasmids; lysed in ice-cold IP lysate; anti-Flag or anti-HA magnetic beads; Western blot; remark: listed apart in the source
TRIM25-K392Q [8] = molecular target: TRIM25-K392Q (UniProt Q14258); assay: co-IP; TRIM25-WT, -KR and -KQ each co-transfected with USP15; cell line not named in the legend; Western blot
TRIM25-FLAG [9] = molecular target: TRIM25-FLAG (UniProt Q14258); assay: as above
TRIM25-K392R [10] = molecular target: TRIM25-K392R (UniProt Q14258); assay: as above

binding [2]: binds
Molecule: cAMP-responsive element-binding (CREB)-binding protein (CBP), transfected (from UniProt Q92793 1-2442) (enzyme)

binding [1]: binds
Molecule: CBP, endogenous (from UniProt Q92793 1-2442) (enzyme)

binding (TRIM25-FLAG [3]): binds | binding (TRIM25-K392Q [4]): binds | binding (TRIM25-FLAG [5]): binds | binding (TRIM25-K392R [6]): binds
Molecule: USP7-HA (ubiquitin specific peptidase 7) (from UniProt Q93009 1-1102) (enzyme)

binding [1]: binds
Molecule: USP7, endogenous (from UniProt Q93009 1-1102) (enzyme)

More lines, now with the values behind:

Molecule: SIRT7, endogenous (from UniProt Q9NRC8 1-400) (enzyme)
binding [1]: binds

Molecule: Sirtuin 7 (SIRT7), transfected (from UniProt Q9NRC8 1-400) (enzyme)
binding [2]: binds

B1: USP15-HA (enzyme, UniProt Q9Y4E8 1-981)
chain: MAEGGAADLDTQRSDIATLLKTSLRKGDTWYLVDSRWFKQWKKYVGFDSWDKYQMGDQNVYPGPIDNSGLLKDGDAQSLKEHLIDELDYILLPTEGWNKLVSWYTLMEGQEPIARKVVEQGMFVKHCKVEVYLTELKLCENGNMNNVVTRRFSKADTIDTIEKEIRKIFSIPDEKETRLWNKYMSNTFEPLNKPDSTIQDAGLYQGQVLVIEQKNEDGTWPRGPSTPKSPGASNFSTLPKISPSSLSNNYNNMNNRNVKNSNYCLPSYTAYKNYDYSEPGRNNEQPGLCGLSNLGNTCFMNSAIQCLSNTPPLTEYFLNDKYQEELNFDNPLGMRGEIAKSYAELIKQMWSGKFSYVTPRAFKTQVGRFAPQFSGYQQQDCQELLAFLLDGLHEDLNRIRKKPYIQLKDADGRPDKVVAEEAWENHLKRNDSIIVDIFHGLFKSTLVCPECAKISVTFDPFCYLTLPLPMKKERTLEVYLVRMDPLTKPMQYKVVVPKIGNILDLCTALSALSGIPADKMIVTDIYNHRFHRIFAMDENLSSIMERDDIYVFEININRTEDTEHVIIPVCLREKFRHSSYTHHTGSSLFGQPFLMAVPRNNTEDKLYNLLLLRMCRYVKISTETEETEGSLHCCKDQNINGNGPNGIHEEGSPSEMETDEPDDESSQDQELPSENENSQSEDSVGGDNDSENGLCTEDTCKGQLTGHKKRLFTFQFNNLGNTDINYIKDDTRHIRFDDRQLRLDERSFLALDWDPDLKKRYFDENAAEDFEKHESVEYKPPKKPFVKLKDCIELFTTKEKLGAEDPWYCPNCKEHQQATKKLDLWSLPPVLVVHLKRFSYSRYMRDKLDTLVDFPINDLDMSEFLINPNAGPCRYNLIAVSNHYGGMGGGHYTAFAKNKDDGKWYYFDDSSVSTASEDQIVSKAAYVLFYQRQDTFSGTGFFPLDRETKGASAATGIPLESDEDSNDNDNDIENENCMHTN
binding (TRIM25-FLAG [5]): binds | binding (TRIM25-FLAG [7]): binds | binding (TRIM25-K392Q [8]): binds | binding (TRIM25-FLAG [9]): binds | binding (TRIM25-K392R [10]): binds
